# Results as given in PubChem BioAssay (EPA / NIEHS).
# By UniProt entry, the sequences of proteins in these tests, tags left out. Where a name states a change or a piece, a line headed by the entry shows the natural chain unless it says otherwise.
# UniProt P37231: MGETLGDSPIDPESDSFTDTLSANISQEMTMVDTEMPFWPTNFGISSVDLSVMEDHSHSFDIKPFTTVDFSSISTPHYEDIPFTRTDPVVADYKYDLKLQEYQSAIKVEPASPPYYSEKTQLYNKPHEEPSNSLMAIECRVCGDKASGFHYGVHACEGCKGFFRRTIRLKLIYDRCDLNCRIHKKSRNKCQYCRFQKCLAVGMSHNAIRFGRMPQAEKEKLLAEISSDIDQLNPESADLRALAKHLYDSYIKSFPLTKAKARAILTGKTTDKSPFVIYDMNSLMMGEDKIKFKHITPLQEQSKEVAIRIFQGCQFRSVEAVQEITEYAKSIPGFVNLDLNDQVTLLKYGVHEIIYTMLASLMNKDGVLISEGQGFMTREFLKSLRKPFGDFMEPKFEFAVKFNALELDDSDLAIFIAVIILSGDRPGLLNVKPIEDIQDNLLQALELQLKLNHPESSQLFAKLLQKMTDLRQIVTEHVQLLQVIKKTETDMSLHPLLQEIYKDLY
# UniProt Q14994: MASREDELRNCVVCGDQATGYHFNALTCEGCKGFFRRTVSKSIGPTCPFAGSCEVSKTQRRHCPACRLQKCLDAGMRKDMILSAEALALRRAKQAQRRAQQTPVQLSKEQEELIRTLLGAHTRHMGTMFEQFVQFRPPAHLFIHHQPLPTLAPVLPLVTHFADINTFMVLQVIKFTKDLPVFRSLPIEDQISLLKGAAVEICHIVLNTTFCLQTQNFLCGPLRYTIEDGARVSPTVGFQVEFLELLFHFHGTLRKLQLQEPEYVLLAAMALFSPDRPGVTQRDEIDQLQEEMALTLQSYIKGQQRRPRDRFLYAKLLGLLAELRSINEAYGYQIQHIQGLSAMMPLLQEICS
# UniProt P33261, whole entry, looked up: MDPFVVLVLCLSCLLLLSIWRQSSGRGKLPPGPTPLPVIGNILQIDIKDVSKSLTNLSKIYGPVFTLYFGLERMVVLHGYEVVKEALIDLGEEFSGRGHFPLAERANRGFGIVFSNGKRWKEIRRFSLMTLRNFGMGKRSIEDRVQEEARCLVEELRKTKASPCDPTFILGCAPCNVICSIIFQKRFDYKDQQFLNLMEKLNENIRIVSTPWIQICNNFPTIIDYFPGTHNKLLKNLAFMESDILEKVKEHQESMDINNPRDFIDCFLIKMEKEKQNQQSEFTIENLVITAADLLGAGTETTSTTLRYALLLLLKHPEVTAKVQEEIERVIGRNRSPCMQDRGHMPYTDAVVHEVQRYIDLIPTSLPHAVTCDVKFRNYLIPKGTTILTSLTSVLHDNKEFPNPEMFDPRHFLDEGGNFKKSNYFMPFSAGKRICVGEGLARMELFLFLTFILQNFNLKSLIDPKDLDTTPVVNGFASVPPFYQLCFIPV
# UniProt Q9UNQ0: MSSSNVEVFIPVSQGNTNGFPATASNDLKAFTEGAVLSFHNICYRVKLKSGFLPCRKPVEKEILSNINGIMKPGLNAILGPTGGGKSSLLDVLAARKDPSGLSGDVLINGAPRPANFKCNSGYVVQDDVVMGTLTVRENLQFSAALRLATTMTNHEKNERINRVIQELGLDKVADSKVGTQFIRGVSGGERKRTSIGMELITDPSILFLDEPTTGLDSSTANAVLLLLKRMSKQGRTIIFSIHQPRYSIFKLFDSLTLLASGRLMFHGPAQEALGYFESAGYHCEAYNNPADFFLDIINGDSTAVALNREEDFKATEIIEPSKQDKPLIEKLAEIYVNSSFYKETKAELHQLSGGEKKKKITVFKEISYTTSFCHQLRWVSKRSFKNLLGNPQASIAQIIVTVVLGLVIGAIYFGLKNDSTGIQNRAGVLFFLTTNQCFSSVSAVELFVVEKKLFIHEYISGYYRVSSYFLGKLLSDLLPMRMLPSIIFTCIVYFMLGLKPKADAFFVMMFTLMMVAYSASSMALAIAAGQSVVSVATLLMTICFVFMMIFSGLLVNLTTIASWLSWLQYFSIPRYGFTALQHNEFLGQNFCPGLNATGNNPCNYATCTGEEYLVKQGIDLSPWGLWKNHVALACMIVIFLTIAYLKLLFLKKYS
# UniProt Q07869: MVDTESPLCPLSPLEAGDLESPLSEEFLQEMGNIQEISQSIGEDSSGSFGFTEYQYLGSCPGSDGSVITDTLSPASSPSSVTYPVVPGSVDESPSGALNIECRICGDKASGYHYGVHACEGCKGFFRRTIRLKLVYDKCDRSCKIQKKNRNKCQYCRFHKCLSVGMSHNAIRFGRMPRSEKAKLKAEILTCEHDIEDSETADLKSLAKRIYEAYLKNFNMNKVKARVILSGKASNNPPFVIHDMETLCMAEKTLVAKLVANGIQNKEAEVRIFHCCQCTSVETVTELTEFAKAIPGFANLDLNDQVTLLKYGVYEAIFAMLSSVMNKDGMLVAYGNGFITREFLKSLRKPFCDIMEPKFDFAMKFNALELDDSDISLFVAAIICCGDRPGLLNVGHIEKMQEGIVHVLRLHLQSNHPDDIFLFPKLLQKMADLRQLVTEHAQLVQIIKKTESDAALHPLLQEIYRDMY
# UniProt P21709: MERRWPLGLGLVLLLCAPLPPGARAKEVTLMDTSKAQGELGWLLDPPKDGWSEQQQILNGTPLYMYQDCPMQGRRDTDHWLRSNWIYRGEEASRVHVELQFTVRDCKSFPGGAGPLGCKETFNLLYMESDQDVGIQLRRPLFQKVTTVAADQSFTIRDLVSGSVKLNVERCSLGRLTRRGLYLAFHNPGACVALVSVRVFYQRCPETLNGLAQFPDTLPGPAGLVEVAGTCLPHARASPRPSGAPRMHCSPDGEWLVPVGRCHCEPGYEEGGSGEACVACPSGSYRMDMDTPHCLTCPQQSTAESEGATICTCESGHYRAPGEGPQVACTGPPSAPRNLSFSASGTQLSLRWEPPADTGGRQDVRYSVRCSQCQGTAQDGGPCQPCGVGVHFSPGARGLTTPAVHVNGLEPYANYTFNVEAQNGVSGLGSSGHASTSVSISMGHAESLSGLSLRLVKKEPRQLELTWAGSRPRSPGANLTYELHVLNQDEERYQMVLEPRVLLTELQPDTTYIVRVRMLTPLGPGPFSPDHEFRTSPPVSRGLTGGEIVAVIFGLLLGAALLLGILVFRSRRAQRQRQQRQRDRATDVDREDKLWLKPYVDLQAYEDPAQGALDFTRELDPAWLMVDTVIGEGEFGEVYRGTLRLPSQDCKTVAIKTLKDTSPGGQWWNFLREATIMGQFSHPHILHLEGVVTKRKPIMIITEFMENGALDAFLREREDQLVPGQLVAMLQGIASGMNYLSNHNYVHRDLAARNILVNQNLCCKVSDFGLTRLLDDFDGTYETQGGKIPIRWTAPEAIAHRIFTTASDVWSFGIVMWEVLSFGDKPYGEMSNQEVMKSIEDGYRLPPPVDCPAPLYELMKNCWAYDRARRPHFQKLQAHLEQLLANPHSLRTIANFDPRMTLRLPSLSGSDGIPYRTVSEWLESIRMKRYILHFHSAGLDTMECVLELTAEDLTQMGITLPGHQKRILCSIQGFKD
# UniProt P05979, whole entry, looked up: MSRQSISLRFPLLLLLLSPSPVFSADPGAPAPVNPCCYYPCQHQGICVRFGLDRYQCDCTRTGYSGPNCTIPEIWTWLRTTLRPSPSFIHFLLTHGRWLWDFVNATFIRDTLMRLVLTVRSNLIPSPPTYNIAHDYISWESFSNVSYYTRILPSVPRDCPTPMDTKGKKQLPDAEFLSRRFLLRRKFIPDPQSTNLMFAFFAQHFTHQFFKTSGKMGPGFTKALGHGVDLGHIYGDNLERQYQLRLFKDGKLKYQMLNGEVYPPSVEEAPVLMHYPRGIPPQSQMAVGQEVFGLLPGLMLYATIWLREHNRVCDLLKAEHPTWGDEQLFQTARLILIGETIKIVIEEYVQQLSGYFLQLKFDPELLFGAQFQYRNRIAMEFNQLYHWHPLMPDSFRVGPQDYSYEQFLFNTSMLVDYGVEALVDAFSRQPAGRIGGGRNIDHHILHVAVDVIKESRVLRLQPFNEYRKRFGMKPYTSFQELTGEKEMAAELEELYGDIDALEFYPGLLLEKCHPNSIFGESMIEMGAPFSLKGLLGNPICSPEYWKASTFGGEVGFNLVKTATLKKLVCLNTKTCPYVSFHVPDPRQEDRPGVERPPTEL
# “And” between values parts separate entries of the source, which are not always exact repeats. Equal values may be shown once. Inconclusive means that the source gave no clear call. Such entries were picked first, then a sample of the others. For some assays here: Potencies beside an inconclusive call are fits to weak or partial responses and may not hold up. More than one record can exist for a structure, and the calls need not agree. The source made the active and inactive calls. The calls were made as follows: active = hit-call score of the fitted dose curve at least 0.9, where 1 is the maximum; inconclusive = response in the unintended direction; inactive = score below 0.9.
# Legend:
# [1] = Tanguay_ZF_120hpf_PIG_legacy: (Legacy) Oregon State University Tanguay Lab 120 Hour Post-fertilization zebrafish Assay for Pigmentation Malformation (AID 2283650)
# Outline: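 Tropical 5D wild-type zebrafish embryos, dechorionated with pronase at 4 hpf, were exposed singly from 6 hpf to 120 hpf statically at 28C in sealed, dark plates with 0.64% DMSO; pigmentation scored present/absent by brightfield microscopy, fitted against DMSO.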
# [2] = biological target: Peroxisome proliferator-activated receptor gamma (Homo sapiens) (UniProt P37231); assay: NVS_NR_hPPARg: NovaScreen (NVS) Nuclear Receptor Binding Assay for human Peroxisome Proliferator-activated Receptor gamma (PPARg) (AID 2283370)
# Outline: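 Chemicals were tested first in duplicate at 25 uM, then in concentration series if active. Binding to cell-free PPARg protein was measured by fluorescence polarization after 2 h, with loss of signal scored against DMSO.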
# [3] = Tanguay_ZF_120hpf_EYE_legacy: (Legacy) Oregon State University Tanguay Lab 120 Hour Post-fertilization zebrafish Assay for Eye Malformation (AID 2283636);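 also: binary presence or absence of eye malformation scored by brightfield in 120 hpf larvae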
# Outline: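 Dechorionated wild-type Tropical 5D zebrafish embryos were exposed statically from 6 hpf, one per well, to 120 hpf at 28C in sealed, foil-covered plates with 0.64% DMSO. Eye malformation was scored present/absent by brightfield microscopy against DMSO controls.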
# [4] = Tanguay_ZF_120hpf_JAW_legacy: (Legacy) Oregon State University Tanguay Lab 120 Hour Post-fertilization zebrafish Assay for Jaw Malformation (AID 2283638);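 also: active means more embryos with jaw malformation than DMSO controls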
# Outline: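 Steps: dechorionate 4 hpf embryos (pronase); plate 1/well at 6 hpf; add test chemical, 0.64% DMSO final; seal, cover, hold at 28C statically to 120 hpf; score jaw defect presence/absence microscopically. Dead embryos not scored.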
# [5] = Tanguay_ZF_120hpf_SOMI_legacy: (Legacy) Oregon State University Tanguay Lab 120 Hour Post-fertilization zebrafish Assay for Somite Malformation (AID 2283647)
# Outline: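 Read-out: presence or absence of somite malformation in 120 hpf larvae, gain-of-signal relative to DMSO baseline. Embryos lacked chorion (pronase, 4 hpf) and were exposed statically from 6 hpf at 28C; dead larvae not scored.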
# [6] = Tanguay_ZF_120hpf_SWIM_legacy: (Legacy) Oregon State University Tanguay Lab 120 Hour Post-fertilization zebrafish Assay for Swim Bladder Malformation (AID 2283654);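 also: swim bladder malformation in each larva scored yes or no under brightfield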
# Outline: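 Dechorionated Tropical 5D wild-type embryos, placed singly from 6 hpf, were statically exposed at 28C to 120 hpf with 0.64% DMSO final; swim bladder malformation was scored present/absent by brightfield microscopy, gain of signal relative to DMSO controls.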
# [7] = Tanguay_ZF_120hpf_TRUN_legacy: (Legacy) Oregon State University Tanguay Lab 120 Hour Post-fertilization zebrafish Assay for Truncated Body (AID 2283655)
# Outline: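 Truncated body is recorded as a binary endpoint at 120 hpf by brightfield imaging of wild-type 5D larvae. Exposure runs statically from 6 hpf at 28C with 0.64% DMSO; embryos dying earlier are not scored.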
# [8] = CCTE_Shafer_MEA_acute_LDH: CCTE's Lactate Dehydrogenase Assay for Cytotoxicity in the Neural Acute Assay, Shafer Lab (AID 2284086);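 also: active means LDH release rises above DMSO vehicle level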
# Outline: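 Medium from rat cortical neuron MEA cultures sampled right after the 40 min compound-exposure recording; released LDH measured by absorbance at 490 nm. Analyzed as signal gain relative to DMSO.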
# [9] = biological target: human Constitutive Androstane Receptor (CAR), NR1I3 (gene 9970) (UniProt Q14994); assay: NVS_NR_hCAR_Antagonist: NovaScreen (NVS) Nuclear Receptor Binding Assay for human Constitutive Androstane Receptor Antagonism (CAR) (AID 2283344)
# Outline: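 Cell-free TR-FRET binding read 1 h after dosing, antagonist mode; loss of signal versus DMSO baseline. Primary screen in duplicate at a single 25 uM; actives retested in concentration series.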
# [10] = read-out: xenobiotic metabolism (CYP2C9), CYP2C9 (gene 1559); assay: CLD_CYP2C9_6hr: CellzDirect (CLD) Gene Expression Assay for xenobiotic metabolism (CYP2C9) at 6 hours (AID 2283664)
# Outline: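 Primary human hepatocytes dosed daily with test chemicals at multiple concentrations; harvested at 6 h. CYP2C9 mRNA induction measured by qNPA chemiluminescence. Gain of signal fitted against 0.2% DMSO vehicle; cytotoxicity annotated from phase-contrast morphology.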
# [11] = CLD_ACTIN_6hr: CellzDirect (CLD) Gene Expression Assay for Baseline Control (Actin) at 6 hours (AID 2283676);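 as to outcome: active means increased actin mRNA relative to DMSO vehicle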
# Outline: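 Primary human hepatocytes dosed with fresh chemical solutions (vehicle 0.2% DMSO), harvested at 6 h. Actin mRNA quantified by quantitative nuclease protection assay with chemiluminescent read-out, as background control relative to DMSO.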
# [12] = read-out: Cytochrome P450 2C19 (Homo sapiens) (UniProt P33261); assay: CLD_CYP2C19_6hr: CellzDirect (CLD) Gene Expression Assay for xenobiotic metabolism (CYP2C19) at 6 hours (AID 2283678)
# Outline: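 Primary human hepatocytes from two donor preparations were dosed daily, with 0.2% DMSO as vehicle, and harvested 6 h after dosing. CYP2C19 mRNA induction was measured by qNPA chemiluminescence and fitted as gain of signal against DMSO.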
# [13] = read-out: ABC Transporter (ABCB1), ABCB1 (gene 5243); assay: CLD_ABCB1_48hr: CellzDirect (CLD) Gene Expression Assay for ABC Transporter (ABCB1) at 48 hours (AID 2283695);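 as to AC50: potency for induction meaning increase of mRNA over DMSO vehicle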
# Outline: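 Primary human hepatocytes from two donor preparations dosed daily on two consecutive days with 0.2% DMSO vehicle. Harvest at 48 h. ABCB1 mRNA quantified by qNPA with chemiluminescence and fitted for gain of signal versus DMSO.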
# [14] = read-out: ABC Transporter (ABCB11), ABCB11 (gene 8647); assay: CLD_ABCB11_48hr: CellzDirect (CLD) Gene Expression Assay for ABC Transporter (ABCB11) at 48 hours (AID 2283697)
# Outline: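 Primary human hepatocytes from two donor preparations dosed daily for two days at multiple concentrations; 0.2% DMSO vehicle. ABCB11 mRNA at 48 h by quantitative nuclease protection assay, chemiluminescence; fitted for induction versus DMSO.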
# [15] = read-out: Broad substrate specificity ATP-binding cassette transporter ABCG2 (Homo sapiens) (UniProt Q9UNQ0); assay: CLD_ABCG2_48hr: CellzDirect (CLD) Gene Expression Assay for ABC Transporter (ABCG2) at 48 hours (AID 2283704);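 as to AC50: potency for induction of ABCG2 mRNA above the DMSO baseline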
# Outline: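 Primary human hepatocytes from two donors, dosed daily for 2 days, 0.2% DMSO vehicle, several concentrations. ABCG2 mRNA at 48 h by qNPA chemiluminescence, gain fitted versus DMSO; cytotoxicity flagged by morphology.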
# [16] = CCTE_Shafer_MEA_dev_AB: CCTE's Alamar Blue Assay for Cytotoxicity in the Neural Network Formation Assay, Shafer Lab (AID 2284083);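 also: resazurin reduction fluorescence as viability of cultured neurons; twelve days of exposure from plating with re-dosing on DIV 5 and 9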
# Outline: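 Resazurin fluorescence, relative to DMSO, gauges viability after twelve days of exposure that began at plating of rat cortical neurons (1.5 x 10^5 cells/well, 48-well MEA); treatment renewed with full medium exchange on DIV 5 and 9.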
# [17] = biological target: human Peroxisome Proliferator-activated Receptor alpha (PPARa), PPARA (gene 5465) (UniProt Q07869); assay: NVS_NR_hPPARa: NovaScreen (NVS) Nuclear Receptor Binding Assay for human Peroxisome Proliferator-activated Receptor alpha (PPARa) (AID 2283359);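 also: activity means loss of TR-FRET signal versus DMSO baseline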
# Outline: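 Cell-free binding assay with extracted human protein, read by TR-FRET 1 h after chemical dosing. Loss of signal relative to DMSO baseline indicates binding. Primary screen used duplicate single concentration (25 uM); actives followed up in concentration series.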
# [18] = biological target: human Ephrin type-A Receptor 1 (EphA1), EPHA1 (gene 2041) (UniProt P21709); assay: NVS_ENZ_hEphA1: NovaScreen (NVS) Enzymatic Assay for human Ephrin type-A Receptor 1 (EphA1) (AID 2283158);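 also: activity is signal loss versus DMSO meaning EphA1 kinase inhibition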
# Outline: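 Chemicals first tested in duplicate at 25 uM against recombinant EphA1 with a fluorescent substrate; those passing threshold went to singleton dose-response topping at 50 uM. Activity read 1 h later as mobility-shift fluorescence, loss of signal relative to DMSO.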
# [19] = biological target: sheep Cyclooxygenase-1 (Cox1), PTGS1 (gene 443551) (UniProt P05979); assay: NVS_ENZ_oCOX1: NovaScreen (NVS) Enzymatic Assay for sheep Cyclooxygenase-1 (Cox1) (AID 2283239);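 also: actives reduce cyclooxygenase activity so potencies are for inhibitors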
# Outline: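 Absorbance read-out of cyclooxygenase activity in a cell-free preparation from sheep seminal vesicles, taken 0.66 hour after dosing. Initial testing was in duplicate at 25 uM, and confirmatory testing was run in concentration series.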
# [20] = Tanguay_ZF_120hpf_TR_legacy: (Legacy) Oregon State University Tanguay Lab 120 Hour Post-fertilization zebrafish Assay for Touch Response (AID 2283667)
# Outline: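 Tropical 5D wild-type zebrafish embryos were exposed statically in sealed, foil-covered plates at 28C until 120 hpf, with 0.64% (vol/vol) final DMSO. Touch response was scored as present or absent; embryos that died were not scored.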
smiles,measurement,setting,value
C=CCc1ccc2c(c1)OCO2,outcome,[1],inactive
O=C(N[C@H](c1ccccc1)[C@@H]1CN2CCC1CC2)c1c(Cl)ccc(C(F)(F)F)c1Cl,AC50,[2],inconclusive: 24.5 µM
same,AC50,[3],inconclusive: 15.7 µM
same,AC50,[4],inconclusive: 57 µM
same,AC50,[5],inconclusive: 39.6 µM
same,AC50,[6],inconclusive: 56.6 µM
same,AC50,[7],inconclusive: 102 µM
same,outcome,[8],inactive
CCOP(=O)(SC(C)CC)N1CCSC1=O (stereo unspecified),AC50,[9],inconclusive: 0.101 µM
same,AC50,[5],inconclusive: 2.37 µM
same,AC50,[10],inconclusive: 20 µM
same,outcome,[11],inactive
same,outcome,[12],inactive
same,AC50,[13],inconclusive: 0.00135 µM
same,outcome,[14],inactive
same,outcome,[15],inactive
same,AC50,[16],inconclusive: 0.806 µM
O=C(OC1CCCCC1)c1ccccc1C(=O)OC1CCCCC1,AC50,[17],inconclusive: 0.112 µM
O=P(O)(O)CCCl,AC50,[4],inconclusive: 1.63 µM
same,outcome,[1],inactive
same,AC50,[10],inconclusive: 0.000385 µM
same,AC50,[12],inconclusive: 20 µM
same,AC50,[13],inconclusive: 20 µM
same,outcome,[14],inactive
same,AC50,[15],inconclusive: 20 µM
CCNc1nc(NC(C)C)nc(SC)n1,outcome,[9],inactive
same,AC50,[10],inconclusive: 20 µM
same,outcome,[12],inactive
same,AC50,[14],inconclusive: 13.7 µM
CCN(CC)CCO,AC50,[17],inconclusive: 6.69 µM
same,AC50,[4],inconclusive: 43.3 µM
Clc1cccc(Cl)c1Cl,outcome,[18],inactive
same,AC50,[9],inconclusive: 0.806 µM
CCCCCCCCOC(=O)c1ccc(C(=O)OCCCCCCCC)c(C(=O)OCCCCCCCC)c1,AC50,[3],inconclusive: 204 µM
same,AC50,[4],inconclusive: 4.33 µM
Cc1ccc(N)c(N)c1,AC50,[4],inconclusive: 202 µM
N#Cc1cccc(C#N)c1,AC50,[19],active: 29.2 µM
CNC(=N[N+](=O)[O-])NCC1CCOC1 (stereo unspecified),AC50,[16],inconclusive: 14.4 µM
COP(=O)(O)OC,AC50,[19],inconclusive: 0.536 µM
Cc1c([N+](=O)[O-])cc2c(c1[N+](=O)[O-])C(C)(C)CC2(C)C,AC50,[18],inconclusive: 8.92 µM
CN(C)c1ccc(C(=O)c2ccc(N(C)C)cc2)cc1,AC50,[17],inconclusive: 25 µM
same,AC50,[5],active: 28.4 µM
same,AC50,[1],inconclusive: 1.65 µM
same,AC50,[6],active: 30.1 µM
same,AC50,[20],active: 43.3 µM
O=c1n(Cl)c(=O)n(Cl)c(=O)n1Cl,AC50,[3],inconclusive: 11.5 µM
same,AC50,[5],inconclusive: 34.3 µM
same,AC50,[10],inconclusive: 0.0587 µM
same,AC50,[11],inconclusive: 20 µM
same,outcome,[12],inactive
same,outcome,[13],inactive
same,outcome,[14],inactive
CCC[N+](=O)[O-],AC50,[18],active: 25 µM
same,AC50,[19],inconclusive: 0.00229 µM
O=P(OCCCl)(OCCCl)OCCCl,AC50,[2],inconclusive: 25 µM
same,outcome,[1],inactive
same,outcome,[7],inactive
same,AC50,[20],inconclusive: 149 µM
same,outcome,[8],inactive
O=C(NCO)NCO,AC50,[17],inconclusive: 0.215 µM
same,AC50,[2],active: 25 µM
O=[N+]([O-])C=Cc1ccccc1,AC50,[19],inconclusive: 43.7 µM
O=C(O)c1c(Cl)ccc2cc(Cl)cnc12,AC50,[5],inconclusive: 1.23 µM
same,AC50,[7],inconclusive: 27.7 µM
same,outcome,[10],inactive
same,AC50,[11],inconclusive: 20 µM
same,AC50,[13],inconclusive: 0.0232 µM
same,outcome,[14],inactive
same,AC50,[15],inconclusive: 0.00052 µM
CC(C)[C@@H](Nc1ccc(C(F)(F)F)cc1Cl)C(=O)OC(C#N)c1cccc(Oc2ccccc2)c1 (stereo partly specified),AC50,[16],active: 14.5 µM
CCCSP(=O)(OCC)Oc1ccc(Br)cc1Cl (stereo unspecified),AC50,[9],active: 16 µM
same,AC50,[3],inconclusive: 101 µM
same,AC50,[10],inconclusive: 20 µM
same,AC50,[11],inconclusive: 20 µM
same,AC50,[12],inconclusive: 20 µM
same,AC50,[13],inconclusive: 3.45 µM
same,outcome,[14],inactive
O=P(OCC(Br)CBr)(OCC(Br)CBr)OCC(Br)CBr (stereo unspecified),outcome,[17],inactive
COP(=O)(NC(C)=O)SC (stereo unspecified),AC50,[9],inconclusive: 25 µM
same,outcome,[2],inactive
same,outcome,[1],inactive
same,outcome,[10],inactive
same,outcome,[12],inactive
same,AC50,[16],inconclusive: 50 µM and inconclusive: 143 nM
same,AC50,[8],active: 0.00708 µM
same,outcome,[8],inactive

# Shown with tabs: part of the list above.
smiles	measurement	setting	value
CCCSP(=O)(OCC)Oc1ccc(Br)cc1Cl (stereo unspecified)	AC50	[13]	inconclusive: 3.45 µM
same	outcome	[14]	inactive
O=P(OCC(Br)CBr)(OCC(Br)CBr)OCC(Br)CBr (stereo unspecified)	outcome	[17]	inactive

# 2 entries from above, with bars between the fields.
smiles | measurement | setting | value
O=P(O)(O)CCCl | outcome | [1] | inactive
COP(=O)(NC(C)=O)SC (stereo unspecified) | outcome | [8] | inactive
